Assay results from patent US11247980B2, “Herbicidal uracilpyrid” (BASF SE, priority 2017, dated 2022).
Some results were stated once for a whole list of compounds, not compound by compound.

Assays:
Assay in all cases: greenhouse experiments, herbicidal activity, post-emergence treatment
Conditions in all cases: application rate of 16 g/ha, post-emergence method, scale from 0 to 100
AMARE = type: in vivo, Amaranthus retroflexus
CHEAL = type: in vivo, Chenopodium album
From the text: The culture containers used were plastic flowerpots containing loamy sand with approximately 3.0% of humus as the substrate. The seeds of the test plants were sown separately for each species.
For the pre-emergence treatment, the active ingredients, which had been suspended or emulsified in water, were applied directly after sowing by means of finely distributing nozzles. The containers were irrigated gently to promote germination and growth and subsequently covered with transparent plastic hoods until the plants had rooted. This cover caused uniform germination of the test plants, unless this had been impaired by the active ingredients. For the post-emergence treatment, the test plants were first grown to a height of 3 to 15 cm, depending on the plant habit, and only then treated with the active ingredients which had been suspended or emulsified in water. For this purpose, the test plants were either sown directly and grown in the same containers, or they were first grown separately as seedlings and transplanted into the test containers a few days prior to treatment.
Depending on the species, the plants were kept at 10-25° C. or 20-35° C., respectively. The test period extended over 2 to 4 weeks. During this time, the plants were tended, and their response to the individual treatments was evaluated.
Evaluation was carried out using a scale from 0 to 100. 100 means no emergence of the plants, or complete destruction of at least the aerial moieties, and 0 means no damage, or normal course of growth. A good herbicidal activity is given at values of at least 70 and a very good herbicidal activity is given at values of at least 85.
The plants used in the greenhouse experiments were of the following species: […]

ECHCG = type: in vivo, Echinocloa crus-galli
SETVI = type: in vivo, Setaria viridis

Structure (SMILES) | herbicidal activity against AMARE (AMARE) | herbicidal activity against CHEAL (CHEAL) | herbicidal activity against ECHCG (ECHCG) | herbicidal activity against SETVI (SETVI)
CCOC(=O)COc1ccccc1Oc1nc(-n2c(=O)c(C)c(C(F)(F)F)n(C)c2=O)c(F)cc1Cl [compound 46] | very good herbicidal activity (a very good herbicidal activity is given at values of at least 85) | very good herbicidal activity (a very good herbicidal activity is given at values of at least 85) | very good herbicidal activity (a very good herbicidal activity is given at values of at least 85) | very good herbicidal activity (a very good herbicidal activity is given at values of at least 85)
COC(=O)COc1ccccc1Oc1nc(-n2c(=O)cc(C(F)(F)F)n(C)c2=O)c(F)cc1Cl [compound 47] | very good herbicidal activity (a very good herbicidal activity is given at values of at least 85) | very good herbicidal activity (a very good herbicidal activity is given at values of at least 85) | very good herbicidal activity (a very good herbicidal activity is given at values of at least 85) | very good herbicidal activity (a very good herbicidal activity is given at values of at least 85)
CSC(=O)COc1ccccc1Oc1nc(-n2c(=O)cc(C(F)(F)F)n(C)c2=O)c(F)cc1Cl [compound 48] | very good herbicidal activity (a very good herbicidal activity is given at values of at least 85) | very good herbicidal activity (a very good herbicidal activity is given at values of at least 85) | very good herbicidal activity (a very good herbicidal activity is given at values of at least 85) | very good herbicidal activity (a very good herbicidal activity is given at values of at least 85)
C#CCOC(=O)COc1ccccc1Oc1nc(-n2c(=O)cc(C(F)(F)F)n(C)c2=O)c(F)cc1Cl [compound 49] | very good herbicidal activity (a very good herbicidal activity is given at values of at least 85) | very good herbicidal activity (a very good herbicidal activity is given at values of at least 85) | very good herbicidal activity (a very good herbicidal activity is given at values of at least 85) | very good herbicidal activity (a very good herbicidal activity is given at values of at least 85)
C=CCOC(=O)COc1ccccc1Oc1nc(-n2c(=O)cc(C(F)(F)F)n(C)c2=O)c(F)cc1Cl [compound 50] | very good herbicidal activity (a very good herbicidal activity is given at values of at least 85) | very good herbicidal activity (a very good herbicidal activity is given at values of at least 85) | very good herbicidal activity (a very good herbicidal activity is given at values of at least 85) | very good herbicidal activity (a very good herbicidal activity is given at values of at least 85)
CC#CCOC(=O)COc1ccccc1Oc1nc(-n2c(=O)cc(C(F)(F)F)n(C)c2=O)c(F)cc1Cl [compound 51] | very good herbicidal activity (a very good herbicidal activity is given at values of at least 85) | very good herbicidal activity (a very good herbicidal activity is given at values of at least 85) | very good herbicidal activity (a very good herbicidal activity is given at values of at least 85) | very good herbicidal activity (a very good herbicidal activity is given at values of at least 85)
C=C(C)COC(=O)COc1ccccc1Oc1nc(-n2c(=O)cc(C(F)(F)F)n(C)c2=O)c(F)cc1Cl [compound 52] | very good herbicidal activity (a very good herbicidal activity is given at values of at least 85) | very good herbicidal activity (a very good herbicidal activity is given at values of at least 85) | very good herbicidal activity (a very good herbicidal activity is given at values of at least 85) | very good herbicidal activity (a very good herbicidal activity is given at values of at least 85)
CCCOC(=O)COc1ccccc1Oc1nc(-n2c(=O)cc(C(F)(F)F)n(C)c2=O)c(F)cc1Cl [compound 53] | very good herbicidal activity (a very good herbicidal activity is given at values of at least 85) | very good herbicidal activity (a very good herbicidal activity is given at values of at least 85) | very good herbicidal activity (a very good herbicidal activity is given at values of at least 85) | very good herbicidal activity (a very good herbicidal activity is given at values of at least 85)
CC(C)OC(=O)COc1ccccc1Oc1nc(-n2c(=O)cc(C(F)(F)F)n(C)c2=O)c(F)cc1Cl [compound 54] | very good herbicidal activity (a very good herbicidal activity is given at values of at least 85) | very good herbicidal activity (a very good herbicidal activity is given at values of at least 85) | very good herbicidal activity (a very good herbicidal activity is given at values of at least 85) | very good herbicidal activity (a very good herbicidal activity is given at values of at least 85)
Cn1c(C(F)(F)F)cc(=O)n(-c2nc(Oc3ccccc3OCC(=O)OC(C)(C)C)c(Cl)cc2F)c1=O [compound 55] | very good herbicidal activity (a very good herbicidal activity is given at values of at least 85) | very good herbicidal activity (a very good herbicidal activity is given at values of at least 85) | very good herbicidal activity (a very good herbicidal activity is given at values of at least 85) | very good herbicidal activity (a very good herbicidal activity is given at values of at least 85)
CC(C)COC(=O)COc1ccccc1Oc1nc(-n2c(=O)cc(C(F)(F)F)n(C)c2=O)c(F)cc1Cl [compound 56] | very good herbicidal activity (a very good herbicidal activity is given at values of at least 85) | very good herbicidal activity (a very good herbicidal activity is given at values of at least 85) | very good herbicidal activity (a very good herbicidal activity is given at values of at least 85) | very good herbicidal activity (a very good herbicidal activity is given at values of at least 85)
Cn1c(C(F)(F)F)cc(=O)n(-c2nc(Oc3ccccc3OCC(=O)OCCCl)c(Cl)cc2F)c1=O [compound 57] | very good herbicidal activity (a very good herbicidal activity is given at values of at least 85) | very good herbicidal activity (a very good herbicidal activity is given at values of at least 85) | very good herbicidal activity (a very good herbicidal activity is given at values of at least 85) | very good herbicidal activity (a very good herbicidal activity is given at values of at least 85)
Cn1c(C(F)(F)F)cc(=O)n(-c2nc(Oc3ccccc3OCC(=O)OCC(Cl)Cl)c(Cl)cc2F)c1=O [compound 58] | very good herbicidal activity (a very good herbicidal activity is given at values of at least 85) | very good herbicidal activity (a very good herbicidal activity is given at values of at least 85) | very good herbicidal activity (a very good herbicidal activity is given at values of at least 85) | very good herbicidal activity (a very good herbicidal activity is given at values of at least 85)
Cn1c(C(F)(F)F)cc(=O)n(-c2nc(Oc3ccccc3OCC(=O)OCC(F)F)c(Cl)cc2F)c1=O [compound 59] | very good herbicidal activity (a very good herbicidal activity is given at values of at least 85) | very good herbicidal activity (a very good herbicidal activity is given at values of at least 85) | very good herbicidal activity (a very good herbicidal activity is given at values of at least 85) | very good herbicidal activity (a very good herbicidal activity is given at values of at least 85)
Cn1c(C(F)(F)F)cc(=O)n(-c2nc(Oc3ccccc3OCC(=O)OC3CCC3)c(Cl)cc2F)c1=O [compound 61] | very good herbicidal activity (a very good herbicidal activity is given at values of at least 85) | very good herbicidal activity (a very good herbicidal activity is given at values of at least 85) | very good herbicidal activity (a very good herbicidal activity is given at values of at least 85) | very good herbicidal activity (a very good herbicidal activity is given at values of at least 85)
